Experimental data: US20110067123A1, “MAO-B ELEVATION AS AN EARLY PARKINSON'S DISEASE BIOMARKER” (priority 2008, published 2011)

Test system: tyrosine hydroxylase positive (TH+) cells in mesencephalic cultures
Experiment: TH+ dopaminergic cell counts and morphology in dox-induced mesencephalic cultures
Format: cell-based, mouse
Conditions: deprenyl co-treatment, FIG. 2B

With C#CCN(C)[C@H](C)Cc1ccccc1 [deprenyl] the “morphological dopaminergic neurite alterations” value was “attenuated”.
